## Percent effect of library compounds

Amino acid sequences for entries named in this document (tags omitted). Residues count along the entry.
UniProt A4I591, 1-473: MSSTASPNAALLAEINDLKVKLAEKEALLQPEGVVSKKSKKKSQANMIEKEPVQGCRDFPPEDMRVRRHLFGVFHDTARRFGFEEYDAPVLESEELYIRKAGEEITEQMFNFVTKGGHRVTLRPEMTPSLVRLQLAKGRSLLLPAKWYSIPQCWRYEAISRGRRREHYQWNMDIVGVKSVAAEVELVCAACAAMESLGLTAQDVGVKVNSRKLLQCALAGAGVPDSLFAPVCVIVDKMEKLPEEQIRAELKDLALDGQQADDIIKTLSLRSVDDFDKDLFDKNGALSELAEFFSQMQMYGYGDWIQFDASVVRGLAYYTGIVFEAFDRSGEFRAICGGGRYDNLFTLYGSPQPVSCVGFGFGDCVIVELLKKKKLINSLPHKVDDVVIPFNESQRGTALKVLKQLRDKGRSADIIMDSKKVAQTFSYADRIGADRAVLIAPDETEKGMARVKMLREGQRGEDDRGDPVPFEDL
UniProt P9WPC5, whole entry: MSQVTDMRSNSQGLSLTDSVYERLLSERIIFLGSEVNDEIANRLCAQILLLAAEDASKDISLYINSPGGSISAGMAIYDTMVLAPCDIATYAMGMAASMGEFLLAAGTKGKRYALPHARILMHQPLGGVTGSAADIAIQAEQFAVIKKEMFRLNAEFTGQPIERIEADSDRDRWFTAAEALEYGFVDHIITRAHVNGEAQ
UniProt P9WPC3, whole entry partner: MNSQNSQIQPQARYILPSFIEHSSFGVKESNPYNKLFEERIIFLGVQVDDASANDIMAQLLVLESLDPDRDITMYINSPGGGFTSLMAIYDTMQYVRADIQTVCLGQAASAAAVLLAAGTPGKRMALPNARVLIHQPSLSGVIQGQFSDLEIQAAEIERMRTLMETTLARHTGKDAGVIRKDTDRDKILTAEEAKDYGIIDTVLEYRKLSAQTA

Results are given as percent effect. How 0% and 100% were set is not recorded. Most values in the screen are low, and negative values occur. Compounds were drawn at random from those tested, without regard to their results. A dash means the value is not listed here; it may have been measured.

LiHisRS: 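Histidine-tRNA ligase, Leishmania infantum (UniProt A4I591). Enzyme assay of histidyl-tRNA synthetase; the read-out is not stated. Concentration: 30 µM. Direction is inferred from retests: higher values go with stronger inhibition. The assay is labelled LdHisRS but filed under L. infantum. Of about 69,000 compounds tested this way, about 410 (0.6%) reached 50% or more in at least one test.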
Toxoplasma: 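Assay of Toxoplasma gondii numbers, read through their beta-galactosidase reporter with a colour substrate. Compounds at 10 µM. Higher reads as fewer parasites (inferred from which compounds were picked for retests). About 67,000 compounds were tested under these conditions; 0.38% (about 260) showed 50% or more at least once.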
ClpP1P2: 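Protease assay of ClpP1P2, read by the AMC dye that it sets free. Target: ClpP1P2, Mycobacterium tuberculosis (UniProt P9WPC5 and UniProt P9WPC3). Concentration: 50 µM. Higher reads as stronger inhibition, judged from the few compounds that gave an IC50. Most other retested compounds had strongly negative values. Size under these conditions: about 69,000 compounds, about 10 of them at 50% or above in at least one test.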
T. brucei: 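Whole-parasite assay of Trypanosoma brucei over 72 hours; the read-out is not stated. Compounds at 30 µM. Direction is inferred from retests: higher values go with stronger inhibition. Values scatter widely below zero; nearly all retest evidence comes from the higher of the two concentrations used. Of about 64,000 compounds tested this way, about 940 (1.5%) reached 50% or more in at least one test.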
Leishmania in macrophages: 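Cell assay of Leishmania donovani living inside macrophages; the read-out is not stated. Concentration: 30 µM. Higher reads as stronger inhibition (inferred: compounds with an IC50 in retests scored well above the rest). About 69,000 compounds were tested under these conditions; 1.5% (about 1,000) showed 50% or more at least once.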

structure	LiHisRS	Toxoplasma	ClpP1P2	T. brucei	Leishmania in macrophages
Cn1ccnc1CN1CCCN(C(=O)COC2CCCCC2)CC1	7.826	-14.23	17.47	-17.57	0.494
CCN(Cc1cccc(NC(=O)COCCOC)c1)C(C)=O	-3.03	-4.906	-3.167	-21.23	5.951
O=C(O)C(F)(F)F.c1coc(COCc2ncn3c2CN(Cc2cccs2)CCC3)c1	-	-0.4258	-	-11.94	23.99
O=C(Nc1c(F)cccc1Oc1ccccc1)C1CCS(=O)(=O)C1 (stereo not drawn)	12.07	-18.72	-0.1817	-24.81	-19.61
CCn1cnnc1CCNCc1c[nH]nc1-c1ccc(F)cc1	16.42	-2.07	4.697	-45.49	-0.4647
CN(C)C(=O)N1Cc2ccccc2C2(CCN(C3CCOCC3)CC2)C1	19.42	-40.29	-3.7	1.513	-0.6441
Cc1c(C(=O)NCC(C)C)nnn1-c1cccc2c1CCN(C(C)C)C2	13.39	-48.02	-7.229	11.3	7.688
Cc1nn(C)c(N2CCOCC2)c1CNC1CCN(C(C)(C)C)CC1	-28.09	-	5.473	-46.04	24.08
CN1CCC2(CC1)CN(C(=O)c1onc3ccccc13)CCCN2C	-2.041	21.16	-3.193	7.815	30.02
CCNC(c1cccnc1)c1ccc(F)cc1F (stereo not drawn)	10.53	8.82	-5.025	12.32	18.4
Cc1ncsc1CCC(=O)N(C)Cc1nc2ccccc2n1C	4	-32.32	-8.63	-26.5	-3.893
O=C(NCc1cn2cccnc2n1)C1CC(=O)N(Cc2ccccn2)C1 (stereo not drawn)	12.5	-19.53	-45.44	-	3.308
CCCC(=O)NS(=O)(=O)c1ccc(C#N)c(C(F)(F)F)c1	21.95	-8.51	2.15	-18.59	40.11
O=C1CN([C@@H]2CC[C@@H](NS(=O)(=O)c3ccccc3)[C@H]2O)CCN1	9.79	-1.171	-33.32	3.275	9.374
Cn1ccc(-c2cc(C(=O)N3CCCCC3)c3ccccn23)n1	6.364	-56.98	-338.7	-64.14	36.33
CN(C)c1nc(N)nc(CSCCC(=O)Nc2ccc(F)cc2)n1	8.511	-18.69	-9.856	-25.46	-13.54
Cc1nc(C)c2c(n1)CCN(Cc1nccn1C)CC2.O=C(O)C(F)(F)F	-	-14.18	-	-2.146	23.37
O=C(Cc1csc(-c2ncccn2)n1)N1CCN2CCCCC2C1 (stereo not drawn)	20.63	4.779	0.05584	-4.944	-27.72
CCS(=O)(=O)CC(=O)NC(c1ccc(F)cc1)C1CCCC1 (stereo not drawn)	5.714	0.4525	-3.574	-14.79	12.23
CCc1ncc2c(n1)CN(c1nc(C)ccc1C(=O)O)C2	18.68	4.353	-0.2945	2.186	12.91
CCN1CC(C)(C)CN(C(=O)CCc2ccccc2)CC1=O	12.24	-12.31	3.533	-31.09	-6.573
O=C1N(Cc2cccc(F)c2F)CCCC1(O)CNCc1ccccc1 (stereo not drawn)	30.3	8.372	-11.71	-11.91	5.034
CSc1ncccc1C(=O)N(C)CCc1scnc1C	6.25	4.909	1.206	-0.9451	9.583
Cc1ncc(C(=O)N2CCCC(n3cccn3)C2)s1 (stereo not drawn)	12.28	-6.001	-4.272	8.41	1.272
Cc1cnn(CC2CCCN2C(=O)c2sccc2C#N)c1 (stereo not drawn)	3.419	-4.8	-7.652	-15.45	-4.743
CSc1ccccc1C(C(=O)O)N1CCN(Cc2ccccn2)CC1 (stereo not drawn)	13.33	-1.9	-2.208	-12.79	-12.66
Cc1noc(C)c1CN(C)C(=O)CCOc1ccc(Cl)cc1	9.402	-10.56	10.59	-32.05	14.31
O=C(O)C(F)(F)F.[H][C@@]12CCCO[C@]1([H])[C@H](N(C)Cc1ccco1)CN(C(=O)c1ccc(C)o1)C2	-	0.8136	-	-43.08	-26.44
CN(CCCc1cc(-c2ccccc2)no1)S(C)(=O)=O	1.835	41.77	-12.58	-	-5.761
O=C(O)C(F)(F)F.O=C(O)C(F)(F)F.[H][C@@]12CN(Cc3cccc(C)n3)C[C@]1([H])OCCN2CCOC	-	-29.86	-	5.271	18.65
COc1ccc(C(=O)N2C[C@H]3CC[C@@H]2CN(C)C3)cc1Cl	-2.381	-	16.37	-	-
COCCN1CCC(c2nc3ccc(NC(C)C)cn3n2)CC1.O=C(O)C(F)(F)F	-	-14.09	-	-33.38	37.93
CCCS(=O)(=O)NCc1cccnc1Oc1ccc(C)nc1	8.065	14.75	-6.676	-33.52	-23.1
Cc1noc(C)c1CN1CCc2ncc(CN(C)C)n2CC1.O=C(O)C(F)(F)F.O=C(O)C(F)(F)F	-	1.957	-	-31.57	7.582
[H][C@@]12CS(=O)(=O)C[C@]1([H])N(C(=O)NCc1ccc(OC)cc1)CCN2C	-	11.64	-	15.12	0.0971

The first 4 entries again:

structure,LiHisRS,Toxoplasma,ClpP1P2,T. brucei,Leishmania in macrophages
Cn1ccnc1CN1CCCN(C(=O)COC2CCCCC2)CC1,7.826,-14.23,17.47,-17.57,0.494
CCN(Cc1cccc(NC(=O)COCCOC)c1)C(C)=O,-3.03,-4.906,-3.167,-21.23,5.951
O=C(O)C(F)(F)F.c1coc(COCc2ncn3c2CN(Cc2cccs2)CCC3)c1,-,-0.4258,-,-11.94,23.99
O=C(Nc1c(F)cccc1Oc1ccccc1)C1CCS(=O)(=O)C1 (stereo not drawn),12.07,-18.72,-0.1817,-24.81,-19.61

Data taken from ChEMBL document CHEMBL3988442, “University of Dundee, Small-Polar-MMV Screening Library” (2021).